Results as given in ChEMBL document CHEMBL4316593 (Eur J Med Chem, 2019).
The source gives many values for each of these; only a part stands here.

Key:
Format in all cases: cell-based
Details in all cases: U-87MG ATCC
[1] = Inhibition of RTK/PI3K/AKT/mTOR signaling in human U87 cells assessed as down regulation of ENY2 gene expression at cytotoxic IC50 measured after 48 hrs relative to control
[2] = Inhibition of RTK/PI3K/AKT/mTOR signaling in human U87 cells assessed as up regulation of WSB1 gene expression at cytotoxic IC50 measured after 48 hrs relative to control
[3] = Inhibition of RTK/PI3K/AKT/mTOR signaling in human U87 cells assessed as up regulation of ATP binding cassette subfamily C member 4 gene expression at cytotoxic IC50 measured after 48 hrs relative to control
[4] = Inhibition of RTK/PI3K/AKT/mTOR signaling in human U87 cells assessed as down regulation of ACTB gene expression at cytotoxic IC50 measured after 48 hrs relative to control
[5] = Inhibition of RTK/PI3K/AKT/mTOR signaling in human U87 cells assessed as down regulation of ZNF557 gene expression at cytotoxic IC50 measured after 48 hrs relative to control
[6] = Inhibition of RTK/PI3K/AKT/mTOR signaling in human U87 cells assessed as down regulation of KLF6 gene expression at cytotoxic IC50 measured after 48 hrs relative to control
[7] = Inhibition of RTK/PI3K/AKT/mTOR signaling in human U87 cells assessed as up regulation of solute carrier family 16 member 6 gene expression at cytotoxic IC50 measured after 48 hrs relative to control
[8] = Inhibition of RTK/PI3K/AKT/mTOR signaling in human U87 cells assessed as up regulation of EPHA2 gene expression at cytotoxic IC50 measured after 48 hrs relative to control
[9] = Inhibition of RTK/PI3K/AKT/mTOR signaling in human U87 cells assessed as up regulation of myoferlin gene expression at cytotoxic IC50 measured after 48 hrs relative to control
[10] = Inhibition of RTK/PI3K/AKT/mTOR signaling in human U87 cells assessed as down regulation of C18orf25 gene expression at cytotoxic IC50 measured after 48 hrs relative to control
[11] = Inhibition of RTK/PI3K/AKT/mTOR signaling in human U87 cells assessed as up regulation of PLOD1 gene expression at cytotoxic IC50 measured after 48 hrs relative to control
[12] = Inhibition of RTK/PI3K/AKT/mTOR signaling in human U87 cells assessed as up regulation of UAP1 gene expression at cytotoxic IC50 measured after 48 hrs relative to control
[13] = Inhibition of RTK/PI3K/AKT/mTOR signaling in human U87 cells assessed as down regulation of FOXM1 gene expression at cytotoxic IC50 measured after 48 hrs relative to control
[14] = Inhibition of RTK/PI3K/AKT/mTOR signaling in human U87 cells assessed as up regulation of HILPDA gene expression at cytotoxic IC50 measured after 48 hrs relative to control
[15] = Inhibition of RTK/PI3K/AKT/mTOR signaling in human U87 cells assessed as down regulation of ODF2 gene expression at cytotoxic IC50 measured after 48 hrs relative to control
[16] = Inhibition of RTK/PI3K/AKT/mTOR signaling in human U87 cells assessed as up regulation of BCL2 binding component 3 gene expression at cytotoxic IC50 measured after 48 hrs relative to control
[17] = Inhibition of RTK/PI3K/AKT/mTOR signaling in human U87 cells assessed as down regulation of LAMP2 gene expression at cytotoxic IC50 measured after 48 hrs relative to control
[18] = Inhibition of RTK/PI3K/AKT/mTOR signaling in human U87 cells assessed as down regulation of SAP130 gene expression at cytotoxic IC50 measured after 48 hrs relative to control
[19] = Inhibition of RTK/PI3K/AKT/mTOR signaling in human U87 cells assessed as down regulation of ZNF609 gene expression at cytotoxic IC50 measured after 48 hrs relative to control
[20] = Inhibition of RTK/PI3K/AKT/mTOR signaling in human U87 cells assessed as down regulation of AFF1 gene expression at cytotoxic IC50 measured after 48 hrs relative to control
[21] = Inhibition of RTK/PI3K/AKT/mTOR signaling in human U87 cells assessed as down regulation of ZNF28 gene expression at cytotoxic IC50 measured after 48 hrs relative to control
[22] = Inhibition of RTK/PI3K/AKT/mTOR signaling in human U87 cells assessed as down regulation of LZTR1 gene expression at cytotoxic IC50 measured after 48 hrs relative to control
[23] = Inhibition of RTK/PI3K/AKT/mTOR signaling in human U87 cells assessed as down regulation of NRBP1 gene expression at cytotoxic IC50 measured after 48 hrs relative to control
[24] = Inhibition of RTK/PI3K/AKT/mTOR signaling in human U87 cells assessed as up regulation of pyrroline-5-carboxylate reductase 1 gene expression at cytotoxic IC50 measured after 48 hrs relative to control
[25] = Inhibition of RTK/PI3K/AKT/mTOR signaling in human U87 cells assessed as down regulation of SH3RF2 gene expression at cytotoxic IC50 measured after 48 hrs relative to control
[26] = Inhibition of RTK/PI3K/AKT/mTOR signaling in human U87 cells assessed as up regulation of paroxysmal nonkinesigenic dyskinesia gene expression at cytotoxic IC50 measured after 48 hrs relative to control
[27] = Inhibition of RTK/PI3K/AKT/mTOR signaling in human U87 cells assessed as up regulation of signal sequence receptor subunit 3 gene expression at cytotoxic IC50 measured after 48 hrs relative to control
[28] = Inhibition of RTK/PI3K/AKT/mTOR signaling in human U87 cells assessed as up regulation of transducin beta like 1 X-linked receptor 1 gene expression at cytotoxic IC50 measured after 48 hrs relative to control
[29] = Inhibition of RTK/PI3K/AKT/mTOR signaling in human U87 cells assessed as down regulation of GOLGA7 gene expression at cytotoxic IC50 measured after 48 hrs relative to control
[30] = Inhibition of RTK/PI3K/AKT/mTOR signaling in human U87 cells assessed as up regulation of casein kinase 2 alpha 1 gene expression at cytotoxic IC50 measured after 48 hrs relative to control
[31] = Inhibition of RTK/PI3K/AKT/mTOR signaling in human U87 cells assessed as up regulation of PGK1 gene expression at cytotoxic IC50 measured after 48 hrs relative to control
[32] = Inhibition of RTK/PI3K/AKT/mTOR signaling in human U87 cells assessed as up regulation of myosin phosphatase Rho interacting protein gene expression at cytotoxic IC50 measured after 48 hrs relative to control

CC(=O)C(=NNc1ccccc1C#N)C(C)=O
log2FC [1]: -0.529
log2FC [2]: 0.591
log2FC [3]: 0.805
log2FC [4]: -1.05
log2FC [5]: -1.32
log2FC [6]: -0.872
log2FC [7]: 1.4
log2FC [8]: 0.418
log2FC [9]: 0.769
log2FC [10]: -0.58
log2FC [11]: 1.83
log2FC [12]: 0.62
log2FC [13]: -1.28
log2FC [14]: 1.8
log2FC [15]: -0.685
log2FC [16]: 0.834
log2FC [17]: -0.699
log2FC [18]: -0.596
log2FC [19]: -0.472
log2FC [20]: -0.944
log2FC [21]: -0.975
log2FC [22]: -0.655
log2FC [23]: -1.14
log2FC [24]: 1.35
log2FC [25]: -2.05
log2FC [26]: 0.981
log2FC [27]: 0.704
log2FC [28]: 1.17
log2FC [29]: -0.63
log2FC [30]: 1.01
log2FC [31]: 1.94
log2FC [32]: 1.14
